# Data taken from US20200377551A1, “PEPTIDE CONSTRUCTS AND METHODS FOR ENHANCEMENT OF INTERFERON PRODUCTION” (Wake Forest University Health Sciences, priority 2019, published 2020).
# Sequences of proteins named here, by UniProt entry; tags and fusion partners are left off. Residues count along the entry.
# UniProt Q7Z434, 2-540 limits assumed: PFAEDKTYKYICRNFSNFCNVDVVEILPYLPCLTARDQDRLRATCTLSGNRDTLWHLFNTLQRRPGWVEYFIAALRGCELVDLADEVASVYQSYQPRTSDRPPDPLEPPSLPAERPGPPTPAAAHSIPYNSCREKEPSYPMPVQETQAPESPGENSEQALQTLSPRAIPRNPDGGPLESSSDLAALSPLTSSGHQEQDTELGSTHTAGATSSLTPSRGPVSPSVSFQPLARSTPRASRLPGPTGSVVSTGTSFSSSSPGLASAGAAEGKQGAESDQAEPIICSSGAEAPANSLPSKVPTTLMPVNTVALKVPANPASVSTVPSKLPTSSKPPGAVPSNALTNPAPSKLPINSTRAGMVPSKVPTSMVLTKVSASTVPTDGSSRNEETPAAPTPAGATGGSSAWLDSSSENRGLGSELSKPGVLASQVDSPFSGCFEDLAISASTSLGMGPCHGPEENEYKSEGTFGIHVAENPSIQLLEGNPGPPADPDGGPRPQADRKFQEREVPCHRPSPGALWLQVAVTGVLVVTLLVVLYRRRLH
# For at least one compound, name, drawing or mass did not settle the structure.
# Tests used:
# [1] = target: T1, MAVS (Homo sapiens, UniProt Q7Z434); assay: In vitro MAVS aggregation assay (SDD-AGE); conditions: GST-RIG-I(N), K63-Ub4, mitochondria preincubated with lactate (5 mM, 10 mM) or pyruvate
# [2] = target: T1, MAVS; assay: Lactate-MAVS binding (biotin-lactate pulldown, immunoprecipitation, in vitro binding); conditions: complexes immunoprecipitated by anti-MAVS antibody from HEK293 cells
smiles,measurement,setting,value
CC(=O)C(=O)O [pyruvate],MAVS aggregation induced by activated RIG-I,[1],but not pyruvate
same,interaction with MAVS in cells under physiological conditions,[2],but not pyruvate
